Assay results reported in the supplement of paper PMC10849652.
Some of the results follow.

By UniProt entry, the sequences of proteins in these tests, tags left out. Where a name states a change or a piece, a line headed by the entry shows the natural chain unless it says otherwise.
UniProt Q5SWH9: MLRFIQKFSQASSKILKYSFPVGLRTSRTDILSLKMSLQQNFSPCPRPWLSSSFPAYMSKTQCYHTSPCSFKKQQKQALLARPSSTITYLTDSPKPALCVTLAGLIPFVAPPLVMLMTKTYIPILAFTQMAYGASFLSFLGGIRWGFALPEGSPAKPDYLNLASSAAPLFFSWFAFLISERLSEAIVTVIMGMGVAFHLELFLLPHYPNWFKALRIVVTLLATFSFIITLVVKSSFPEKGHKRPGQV
UniProt Q6PL24: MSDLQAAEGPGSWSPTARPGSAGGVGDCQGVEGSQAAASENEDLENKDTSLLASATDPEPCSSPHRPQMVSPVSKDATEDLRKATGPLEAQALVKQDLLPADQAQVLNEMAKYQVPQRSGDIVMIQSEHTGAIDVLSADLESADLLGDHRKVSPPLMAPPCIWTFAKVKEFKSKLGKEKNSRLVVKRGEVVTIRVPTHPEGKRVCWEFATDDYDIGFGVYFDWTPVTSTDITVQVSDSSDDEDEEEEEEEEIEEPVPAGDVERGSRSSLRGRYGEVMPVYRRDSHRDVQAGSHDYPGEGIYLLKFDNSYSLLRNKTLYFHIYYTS
UniProt Q96K49: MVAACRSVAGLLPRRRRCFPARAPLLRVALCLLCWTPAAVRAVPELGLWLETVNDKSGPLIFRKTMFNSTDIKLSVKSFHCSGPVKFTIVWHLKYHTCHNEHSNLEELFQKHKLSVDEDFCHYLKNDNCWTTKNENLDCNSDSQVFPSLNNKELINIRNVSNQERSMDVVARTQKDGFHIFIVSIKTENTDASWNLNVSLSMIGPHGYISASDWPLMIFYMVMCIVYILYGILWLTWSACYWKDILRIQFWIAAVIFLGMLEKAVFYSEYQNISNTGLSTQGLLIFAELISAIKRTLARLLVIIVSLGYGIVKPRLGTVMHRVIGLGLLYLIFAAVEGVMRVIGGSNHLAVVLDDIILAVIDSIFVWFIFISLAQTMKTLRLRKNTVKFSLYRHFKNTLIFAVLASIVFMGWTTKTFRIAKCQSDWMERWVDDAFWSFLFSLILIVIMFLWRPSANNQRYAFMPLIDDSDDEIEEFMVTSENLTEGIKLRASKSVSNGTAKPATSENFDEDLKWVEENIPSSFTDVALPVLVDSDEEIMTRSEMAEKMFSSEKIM
UniProt Q9NQ34: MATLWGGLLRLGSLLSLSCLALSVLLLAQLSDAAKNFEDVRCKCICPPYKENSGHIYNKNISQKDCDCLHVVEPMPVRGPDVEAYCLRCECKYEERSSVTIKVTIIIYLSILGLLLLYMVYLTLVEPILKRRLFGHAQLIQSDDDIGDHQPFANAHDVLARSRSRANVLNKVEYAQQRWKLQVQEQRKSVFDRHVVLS
UniProt Q9P2C4: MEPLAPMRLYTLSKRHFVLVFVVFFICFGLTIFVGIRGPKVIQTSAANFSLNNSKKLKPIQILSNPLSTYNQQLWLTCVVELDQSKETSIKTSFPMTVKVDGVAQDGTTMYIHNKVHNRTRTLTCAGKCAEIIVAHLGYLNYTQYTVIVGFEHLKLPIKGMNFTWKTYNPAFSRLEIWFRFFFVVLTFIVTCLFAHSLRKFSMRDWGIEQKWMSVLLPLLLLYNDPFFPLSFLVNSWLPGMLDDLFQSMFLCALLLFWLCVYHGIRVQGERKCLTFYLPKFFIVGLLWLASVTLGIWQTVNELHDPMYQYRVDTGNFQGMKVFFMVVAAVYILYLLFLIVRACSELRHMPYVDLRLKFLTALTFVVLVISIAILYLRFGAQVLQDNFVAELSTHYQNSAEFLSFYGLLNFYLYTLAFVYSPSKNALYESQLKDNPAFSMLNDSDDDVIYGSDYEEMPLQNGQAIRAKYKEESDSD
UniProt Q9NX61: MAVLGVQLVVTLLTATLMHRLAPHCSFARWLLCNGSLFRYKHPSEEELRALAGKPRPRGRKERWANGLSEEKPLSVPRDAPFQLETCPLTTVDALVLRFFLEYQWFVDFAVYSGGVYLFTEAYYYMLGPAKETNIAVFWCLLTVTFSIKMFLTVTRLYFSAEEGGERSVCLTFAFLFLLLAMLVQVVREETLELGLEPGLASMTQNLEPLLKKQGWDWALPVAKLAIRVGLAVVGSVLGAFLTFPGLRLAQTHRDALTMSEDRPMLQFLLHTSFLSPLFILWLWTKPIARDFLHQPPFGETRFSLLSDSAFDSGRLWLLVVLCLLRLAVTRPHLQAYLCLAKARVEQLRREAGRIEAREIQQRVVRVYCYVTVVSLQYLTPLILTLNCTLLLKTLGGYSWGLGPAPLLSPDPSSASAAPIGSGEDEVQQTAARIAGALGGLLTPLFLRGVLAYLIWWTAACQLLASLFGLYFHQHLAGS
UniProt Q8NE00: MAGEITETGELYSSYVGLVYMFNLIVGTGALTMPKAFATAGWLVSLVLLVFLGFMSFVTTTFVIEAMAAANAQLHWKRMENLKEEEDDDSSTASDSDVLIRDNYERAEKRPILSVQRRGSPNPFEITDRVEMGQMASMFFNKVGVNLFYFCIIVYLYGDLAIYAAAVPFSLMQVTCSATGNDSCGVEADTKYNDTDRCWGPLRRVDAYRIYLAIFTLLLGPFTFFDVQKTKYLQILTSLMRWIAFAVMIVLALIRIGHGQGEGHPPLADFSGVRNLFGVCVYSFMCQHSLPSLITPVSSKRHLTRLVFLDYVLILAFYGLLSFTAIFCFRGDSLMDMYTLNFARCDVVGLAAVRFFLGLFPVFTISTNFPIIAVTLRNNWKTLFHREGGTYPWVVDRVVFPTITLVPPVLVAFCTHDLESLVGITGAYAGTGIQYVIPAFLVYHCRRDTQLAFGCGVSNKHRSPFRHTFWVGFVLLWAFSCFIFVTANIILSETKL
UniProt O95379: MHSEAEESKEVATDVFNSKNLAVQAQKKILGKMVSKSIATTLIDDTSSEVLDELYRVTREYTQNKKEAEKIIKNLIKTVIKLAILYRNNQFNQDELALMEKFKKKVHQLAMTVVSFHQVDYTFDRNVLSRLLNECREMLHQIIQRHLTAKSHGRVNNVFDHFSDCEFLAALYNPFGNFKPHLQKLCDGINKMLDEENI
UniProt Q0VDI3: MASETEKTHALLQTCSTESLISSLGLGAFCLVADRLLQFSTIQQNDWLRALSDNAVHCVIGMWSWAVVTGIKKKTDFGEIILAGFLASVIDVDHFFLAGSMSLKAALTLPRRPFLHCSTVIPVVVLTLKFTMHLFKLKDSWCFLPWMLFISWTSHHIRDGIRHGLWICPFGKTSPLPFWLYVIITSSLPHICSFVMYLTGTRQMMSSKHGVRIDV
UniProt Q9BTX3: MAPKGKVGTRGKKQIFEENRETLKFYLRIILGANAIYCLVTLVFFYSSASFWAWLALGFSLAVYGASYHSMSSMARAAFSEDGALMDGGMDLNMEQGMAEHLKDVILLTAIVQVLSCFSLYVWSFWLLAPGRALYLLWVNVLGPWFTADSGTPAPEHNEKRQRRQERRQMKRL
UniProt Q9HCN3: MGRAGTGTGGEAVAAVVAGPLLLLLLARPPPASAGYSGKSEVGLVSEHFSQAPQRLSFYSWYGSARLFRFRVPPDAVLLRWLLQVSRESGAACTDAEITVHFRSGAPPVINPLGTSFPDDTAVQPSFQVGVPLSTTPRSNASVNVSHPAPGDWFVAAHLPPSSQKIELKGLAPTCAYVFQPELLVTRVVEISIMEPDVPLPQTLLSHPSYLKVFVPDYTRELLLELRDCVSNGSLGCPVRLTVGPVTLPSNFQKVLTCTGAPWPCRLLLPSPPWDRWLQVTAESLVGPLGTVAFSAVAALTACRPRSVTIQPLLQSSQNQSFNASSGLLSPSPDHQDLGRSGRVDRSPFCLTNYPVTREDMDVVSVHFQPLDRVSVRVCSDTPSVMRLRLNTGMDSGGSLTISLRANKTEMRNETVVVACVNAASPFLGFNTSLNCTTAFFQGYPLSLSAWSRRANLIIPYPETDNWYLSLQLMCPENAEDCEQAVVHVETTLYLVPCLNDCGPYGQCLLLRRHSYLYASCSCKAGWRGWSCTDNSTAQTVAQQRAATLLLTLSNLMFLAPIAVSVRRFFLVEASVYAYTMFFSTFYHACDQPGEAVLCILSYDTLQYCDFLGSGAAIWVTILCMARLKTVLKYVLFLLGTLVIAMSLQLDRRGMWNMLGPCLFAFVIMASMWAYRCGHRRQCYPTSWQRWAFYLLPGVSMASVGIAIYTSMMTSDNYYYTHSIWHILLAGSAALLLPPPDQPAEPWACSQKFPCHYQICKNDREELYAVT
UniProt Q7Z403: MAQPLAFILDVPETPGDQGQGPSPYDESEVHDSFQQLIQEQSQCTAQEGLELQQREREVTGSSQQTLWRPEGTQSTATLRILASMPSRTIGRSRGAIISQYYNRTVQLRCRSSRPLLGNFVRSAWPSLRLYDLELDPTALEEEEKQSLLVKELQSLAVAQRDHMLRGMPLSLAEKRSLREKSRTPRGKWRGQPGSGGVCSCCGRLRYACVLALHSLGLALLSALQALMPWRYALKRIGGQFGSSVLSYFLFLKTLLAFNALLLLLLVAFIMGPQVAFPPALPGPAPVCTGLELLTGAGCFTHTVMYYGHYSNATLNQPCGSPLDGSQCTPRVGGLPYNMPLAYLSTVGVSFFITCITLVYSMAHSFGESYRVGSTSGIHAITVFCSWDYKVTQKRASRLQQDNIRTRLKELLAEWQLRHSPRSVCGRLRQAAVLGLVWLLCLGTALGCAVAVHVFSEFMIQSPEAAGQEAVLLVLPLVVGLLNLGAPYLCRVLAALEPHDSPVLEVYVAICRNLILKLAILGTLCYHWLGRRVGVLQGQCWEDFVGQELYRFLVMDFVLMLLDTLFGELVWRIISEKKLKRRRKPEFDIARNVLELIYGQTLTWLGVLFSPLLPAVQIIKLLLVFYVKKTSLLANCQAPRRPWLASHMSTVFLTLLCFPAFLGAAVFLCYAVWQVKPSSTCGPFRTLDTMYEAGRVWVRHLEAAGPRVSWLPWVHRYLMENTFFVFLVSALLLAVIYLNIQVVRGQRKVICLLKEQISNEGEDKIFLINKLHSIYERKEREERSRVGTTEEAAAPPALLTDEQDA
UniProt Q8NDZ6: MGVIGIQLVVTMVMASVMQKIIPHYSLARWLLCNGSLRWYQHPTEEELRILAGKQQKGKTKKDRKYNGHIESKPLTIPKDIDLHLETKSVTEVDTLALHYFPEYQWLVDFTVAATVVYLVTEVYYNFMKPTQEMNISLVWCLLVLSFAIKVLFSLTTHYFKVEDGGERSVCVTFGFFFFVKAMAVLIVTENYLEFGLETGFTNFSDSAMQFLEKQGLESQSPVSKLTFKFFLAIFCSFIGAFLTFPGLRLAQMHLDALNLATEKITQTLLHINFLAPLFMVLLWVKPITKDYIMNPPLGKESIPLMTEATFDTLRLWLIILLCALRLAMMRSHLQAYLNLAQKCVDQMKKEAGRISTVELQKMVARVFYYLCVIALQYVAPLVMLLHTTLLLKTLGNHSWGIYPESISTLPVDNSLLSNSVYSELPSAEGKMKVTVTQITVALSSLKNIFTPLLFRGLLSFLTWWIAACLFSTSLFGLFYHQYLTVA
UniProt Q7Z7N9: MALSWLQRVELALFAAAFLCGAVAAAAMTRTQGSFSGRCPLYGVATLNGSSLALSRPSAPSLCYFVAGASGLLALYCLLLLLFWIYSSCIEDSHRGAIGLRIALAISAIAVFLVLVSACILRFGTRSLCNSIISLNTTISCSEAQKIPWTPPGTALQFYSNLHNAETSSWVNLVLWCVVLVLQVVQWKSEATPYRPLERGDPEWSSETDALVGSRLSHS
UniProt P62328: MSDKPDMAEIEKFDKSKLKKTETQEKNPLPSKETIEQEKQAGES
UniProt O00206, whole entry, looked up: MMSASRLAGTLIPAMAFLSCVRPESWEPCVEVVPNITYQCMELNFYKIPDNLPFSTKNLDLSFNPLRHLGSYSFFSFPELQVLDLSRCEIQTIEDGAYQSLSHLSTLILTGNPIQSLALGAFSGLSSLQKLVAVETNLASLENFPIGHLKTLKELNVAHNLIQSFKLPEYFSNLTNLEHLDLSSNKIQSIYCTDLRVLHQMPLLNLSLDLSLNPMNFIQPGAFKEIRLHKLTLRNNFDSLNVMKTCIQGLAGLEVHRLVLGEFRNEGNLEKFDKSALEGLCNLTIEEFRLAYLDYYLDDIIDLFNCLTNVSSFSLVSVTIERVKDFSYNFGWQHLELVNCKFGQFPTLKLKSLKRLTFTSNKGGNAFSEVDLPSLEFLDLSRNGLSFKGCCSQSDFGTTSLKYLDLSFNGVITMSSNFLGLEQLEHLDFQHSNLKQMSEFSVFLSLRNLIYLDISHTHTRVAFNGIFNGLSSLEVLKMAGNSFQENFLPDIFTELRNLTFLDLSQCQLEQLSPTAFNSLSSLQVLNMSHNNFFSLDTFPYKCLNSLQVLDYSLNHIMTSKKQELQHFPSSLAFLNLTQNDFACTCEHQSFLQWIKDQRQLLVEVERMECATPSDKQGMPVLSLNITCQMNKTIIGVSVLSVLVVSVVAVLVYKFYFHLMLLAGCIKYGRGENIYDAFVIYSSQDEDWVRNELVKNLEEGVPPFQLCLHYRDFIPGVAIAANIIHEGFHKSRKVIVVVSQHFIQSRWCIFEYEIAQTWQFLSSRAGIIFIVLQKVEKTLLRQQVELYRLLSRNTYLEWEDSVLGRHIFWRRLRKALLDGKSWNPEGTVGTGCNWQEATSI

Legend:
Test in all cases: log2 fold change, soluble protein after heating vs DMSO (PISA); higher = thermal stabilisation; K562 cells, 10 uM, 30 min; active = over 0.2 and 3.5 SD of the protein, either way, in both replicates (recomputed)
[1] = compound: CC[C@@H]1C(=O)N(C)c2cnc(Nc3ccc(C(=O)NC4CCN(C)CC4)cc3OC)nc2N1C1CCCC1
Summary of the method: (§1)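 K562 cells at 2×10^6 cells/mL were given 10 μM compound for 30 min. Aliquots then went through 3 min of heating across 48°C-58°C, were pooled, and were extracted in PBS with 0.5% NP-40 at 4°C, and the supernatant after 21,000xg for 90 min was quantified by TMTpro 16plex LC-MS/MS with channel sums equalised. Thermal stability relative to control samples, from duplicates, is given as log2 fold change.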

[2] = compound: CC[C@@H]1C(=O)N(C)c2cnc(Nc3ccc(C(=O)N[C@H]4CC[C@H](N5CCN(CC6CC6)CC5)CC4)cc3OC)nc2N1C(C)C [volasertib]
Summary of the method: as §1

[3] = compound: CC[C@H](C)N1C=C(C2=C(C=C(C=C21)C3=CN=C(C=C3)N4CCNCC4)C(=O)NCC5=C(C=C(NC5=O)C)C)C
Summary of the method: as §1

[4] = compound: CCn1c(C(=O)N(C2CC2)C2CC2)cc2c3c(ncn3C)c(Nc3cc(C)n(C)n3)nc21
Summary of the method: as §1

[5] = compound: CCn1cc(-c2ccnc3[nH]c(-c4cccc(CN(C)C)c4)cc23)c(-c2ccc(NC(=O)N(C)C)cc2)n1
Summary of the method: as §1

[6] = compound: CN(CCOC1=CC=C(C=C1)C[C@H]2C(=O)NC(=O)S2)C3=CC=CC=N3 (racemic) [rosiglitazone]
Summary of the method: as §1

[7] = compound: CN1CCC(CNc2ccc3ncc(-c4cccc(OC(F)(F)F)c4)n3n2)CC1
Summary of the method: as §1

[8] = compound: CN1C2=C(C3=C1C(=O)N(N=C3)CC4=CC(=CC=C4)N)SC(=C2)S(=O)C
Summary of the method: as §1

[9] = compound: CN(C)CC(=O)Nc1ccc2[nH]c(=O)c3ccccc3c2c1
Summary of the method: as §1

[10] = compound: CC[C@H](C)[C@@H](C(=O)N[C@@H]([C@@H](C)O)C(=O)N[C@@H](CC(C)C)C(=O)[C@]1(CO1)C)NC(=O)[C@H]([C@@H](C)CC)N(C)C(=O)C [epoxomicin]
Summary of the method: as §1

Target | log2 fold change [1] | log2 fold change [2] | log2 fold change [3] | log2 fold change [4] | log2 fold change [5] | log2 fold change [6] | log2 fold change [7] | log2 fold change [8] | log2 fold change [9] | log2 fold change [10]
TMEM69 (UniProt Q5SWH9) | inactive: 0.012 | inactive: -0.085 | inactive: 0.015 | inactive: 0.052 | inactive: -0.024 | inactive: 0.008 | inactive: -0.017 | – | – | –
TM7SF3 (UniProt Q9NS93) | inactive: -0.136 | inactive: -0.178 | inactive: -0.074 | – | – | – | – | inactive: 0.025 | – | –
TMED8 (UniProt Q6PL24) | inactive: -0.019 | inactive: -0.155 | inactive: -0.107 | inactive: 0.033 | inactive: -0.071 | inactive: 0.095 | inactive: -0.25 | inactive: 0.075 | inactive: 0.064 | –
TMEM87B (UniProt Q96K49) | inactive: -0.088 | inactive: -0.148 | inactive: 0.092 | – | inactive: -0.103 | – | active: -0.436 | inactive: -0.143 | inactive: -0.016 | inactive: 0.018
TMEM9B (UniProt Q9NQ34) | inactive: 0.035 | inactive: -0.192 | inactive: -0.011 | – | inactive: 0.049 | – | inactive: -0.054 | – | inactive: -0.023 | inactive: 0.109
TMEM181 (UniProt Q9P2C4) | inactive: -0.121 | inactive: -0.026 | – | inactive: 0.011 | inactive: -0.07 | inactive: -0.01 | inactive: -0.005 | inactive: 0.079 | inactive: -0.023 | –
TMEM161A (UniProt Q9NX61) | inactive: 0.033 | active: -0.477 | inactive: -0.08 | – | inactive: 0.014 | – | inactive: -0.265 | inactive: -0.026 | inactive: -0.009 | inactive: 0.049
TMEM104 (UniProt Q8NE00) | inactive: -0.019 | inactive: 0.043 | inactive: -0.033 | – | inactive: 0.204 | – | inactive: 0.018 | inactive: 0.12 | – | inactive: -0.19
TNFAIP8 isoform 4 (UniProt O95379) | inactive: -0.015 | inactive: -0.414 | inactive: 0.053 | – | inactive: -0.088 | – | inactive: -0.125 | inactive: -0.084 | inactive: 0.022 | inactive: 0.041
TMEM267 (UniProt Q0VDI3) | inactive: -0.035 | inactive: -0.06 | – | inactive: -0.056 | inactive: -0.14 | inactive: -0.161 | inactive: 0.008 | – | inactive: -0.123 | –
TMEM208 (UniProt Q9BTX3) | inactive: -0.071 | inactive: -0.208 | inactive: -0.048 | – | inactive: -0.022 | – | inactive: 0.036 | inactive: -0.02 | inactive: 0.274 | inactive: -0.03
TMEM8A (UniProt Q9HCN3) | inactive: -0.11 | inactive: 0.008 | inactive: -0.108 | – | inactive: -0.037 | – | inactive: -0.104 | inactive: 0.082 | inactive: -0.031 | –
TMC6 (UniProt Q7Z403) | inactive: 0.011 | inactive: -0.175 | inactive: -0.216 | inactive: -0.138 | inactive: 0.109 | – | inactive: -0.184 | inactive: 0.158 | inactive: -0.031 | –
TMEM161B (UniProt Q8NDZ6) | inactive: -0.028 | inactive: -0.038 | inactive: 0.062 | – | inactive: 0.02 | – | inactive: -0.186 | inactive: -0.068 | inactive: 0.079 | inactive: 0.058
TMEM179B (UniProt Q7Z7N9) | inactive: 0.05 | inactive: 0.052 | inactive: 0.029 | – | inactive: 0.039 | – | inactive: -0.128 | – | – | active: -0.44
TMSB4X (UniProt P62328) | inactive: -0.335 | inactive: 0.138 | inactive: -0.47 | – | – | inactive: -0.272 | – | inactive: 0.079 | inactive: -0.18 | inactive: -0.292
TLR4 (UniProt O00206) | inactive: 0.122 | inactive: 0.001 | – | inactive: -0.2 | inactive: 0.051 | inactive: -0.054 | inactive: -0.179 | inactive: 0.014 | inactive: -0.046 | –

Exported as tab-separated lines: entries from further up.
Target	log2 fold change [1]	log2 fold change [2]	log2 fold change [3]	log2 fold change [4]	log2 fold change [5]	log2 fold change [6]	log2 fold change [7]	log2 fold change [8]	log2 fold change [9]	log2 fold change [10]
TMEM161A (UniProt Q9NX61)	inactive: 0.033	active: -0.477	inactive: -0.08	–	inactive: 0.014	–	inactive: -0.265	inactive: -0.026	inactive: -0.009	inactive: 0.049
TMEM104 (UniProt Q8NE00)	inactive: -0.019	inactive: 0.043	inactive: -0.033	–	inactive: 0.204	–	inactive: 0.018	inactive: 0.12	–	inactive: -0.19
TNFAIP8 isoform 4 (UniProt O95379)	inactive: -0.015	inactive: -0.414	inactive: 0.053	–	inactive: -0.088	–	inactive: -0.125	inactive: -0.084	inactive: 0.022	inactive: 0.041
TMEM267 (UniProt Q0VDI3)	inactive: -0.035	inactive: -0.06	–	inactive: -0.056	inactive: -0.14	inactive: -0.161	inactive: 0.008	–	inactive: -0.123	–
TMEM208 (UniProt Q9BTX3)	inactive: -0.071	inactive: -0.208	inactive: -0.048	–	inactive: -0.022	–	inactive: 0.036	inactive: -0.02	inactive: 0.274	inactive: -0.03
